Earlier results on one molecule are cited in patent US4983593A, “Pharmaceutical composition of dihydropyridine compound” (priority 1988, dated 1991).

The conditions of the series: background; cited from earlier work.

`COC(=O)C1=C(C)NC(C)=C(C(=O)OC)C1c1ccccc1[N+](=O)[O-]` [nifedipine]: the “Absorption through gastrointestinal tracts (in words)” value is “can not be absorbed through gastrointestinal tracts in a sufficient amount”.
